# Drug screen on melanoma cell lines: cell count

Data from the primary screen of doi:10.1371/journal.pone.0140310, rounded.

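Human melanoma cell lines in 1,536-well plates were treated with a pair of drugs for 72 h, then fixed, stained and imaged. Values are the number of DAPI-stained nuclei as a percentage of the DMSO control: 100 is no effect, lower means fewer cells. Every drug was used at one fixed concentration, the lower of two screened (a fifth of the higher). No replicate spread is given; individual values may be noisy.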 This is part of the screen, not chosen by result.

First drug in all entries: MK-2206, 0.4 µM, NC1(c2ccc(-c3nc4ccn5c(=O)[nH]nc5c4cc3-c3ccccc3)cc2)CCC1

Partner,LOX IMVI,IPC-298,COLO 800
Cn1cnc2c(F)c(Nc3ccc(Br)cc3Cl)c(C(=O)NOCCO)cc21 at 0.015 µM,73.0,68.9,49.9
CS(=O)(=O)CCNCc1ccc(-c2ccc3ncnc(Nc4ccc(OCc5cccc(F)c5)c(Cl)c4)c3c2)o1 at 0.8 µM,61.6,90.8,52.6
CC1(C)CCC(c2ccc(Cl)cc2)=C(CN2CCN(c3ccc(C(=O)NS(=O)(=O)c4ccc(N[C@H](CCN5CCOCC5)CSc5ccccc5)c(S(=O)(=O)C(F)(F)F)c4)cc3)CC2)C1 at 0.4 µM,12.0,97.2,18.9
COc1cc([C@@H]2c3cc4c(cc3[C@@H](O[C@@H]3O[C@@H]5CO[C@@H](C)O[C@H]5[C@H](O)[C@H]3O)[C@H]3COC(=O)[C@H]23)OCO4)cc(OC)c1O at 0.02 µM,52.7,81.7,81.5
Cn1nnc2c(C(N)=O)ncn2c1=O at 2 µM,89.5,96.1,109
CCCCCCCCCCCCCCCCCCOP(=O)([O-])OC1CC[N+](C)(C)CC1 at 0.4 µM,75.9,93.9,41.0
CO[C@H]1C[C@@H]2CC[C@@H](C)[C@@](O)(O2)C(=O)C(=O)N2CCCC[C@H]2C(=O)O[C@H]([C@H](C)C[C@@H]2CC[C@@H](OCCO)[C@H](OC)C2)CC(=O)[C@H](C)/C=C(\C)[C@@H](O)[C@@H](OC)C(=O)[C@H](C)C[C@H](C)/C=C/C=C/C=C/1C at 0.02 µM,71.3,70.2,54.7
CC(C)C[C@H](NC(=O)[C@H](Cc1ccccc1)NC(=O)c1cnccn1)B(O)O at 0.001 µM,75.3,89.1,88.2
CC(=O)c1c(C)c2cnc(Nc3ccc(N4CCNCC4)cn3)nc2n(C2CCCC2)c1=O at 0.04 µM,62.9,90.0,70.8
N.N.[Cl][Pt][Cl] at 1.6 µM,90.6,92.4,66.8
CN(c1ncccc1CNc1nc(Nc2ccc3c(c2)CC(=O)N3)ncc1C(F)(F)F)S(C)(=O)=O at 0.08 µM,95.2,91.8,69.6
Nc1nc(F)nc2c1ncn2[C@@H]1O[C@H](CO)[C@@H](O)[C@@H]1O at 0.2 µM,66.7,89.3,64.7
O=C(Nc1cc(C(F)(F)F)cc(C(F)(F)F)c1)c1cc(Cl)ccc1O at 0.016 µM,55.2,96.8,68.0
COCC[n+]1c2c(n(Cc3cnccn3)c1C)C(=O)c1ccccc1C2=O at 0.0004 µM,67.1,82.6,62.7
Nc1ccn([C@@H]2O[C@H](CO)[C@@H](O)C2(F)F)c(=O)n1 at 0.0004 µM,101,83.8,90.8
C#Cc1cccc(Nc2ncnc3cc(OCCOC)c(OCCOC)cc23)c1 at 0.8 µM,109,100,66.0
Cn1c(Nc2ccc(C(F)(F)F)cc2)nc2cc(Oc3ccnc(-c4ncc(C(F)(F)F)[nH]4)c3)ccc21 at 0.08 µM,69.5,58.3,66.0
C[C@@H](N)c1ccc(C(=O)Nc2ccnc3[nH]ccc23)cc1 at 0.4 µM,63.0,89.0,121
Cc1ccc(Nc2nccc(N(C)c3ccc4c(C)n(C)nc4c3)n2)cc1S(N)(=O)=O at 0.4 µM,113,77.9,102